Data source: PubChem BioAssay AID1259298 (Sanger Institute, 2017)
The whole screen tested 794 reagents; shown is a random part of them. In the full data, 20 (2.5%) were called active. 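Calls rest only on the knock-down-alone score; drug synergy scores played no part in them.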 No viability above 1 is reported: the scale is capped. Reagent sequences are not shown. Not given: the amount of reagent, the time to read-out.

Screen: 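Kinases whose loss strengthens killing by BYL719, cetuximab or trametinib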 (primary screen)
Cell system: HT55 human colorectal cancer cell line
Knock-down reagent: siRNA pool against human genes
Challenge: anchor drug BYL719 1 µM, cetuximab 5 µg/ml or trametinib 10 nM, or DMSO vehicle alone
Detection: 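Mean viability over replicates versus non-targeting pool, a robust z-score without drug, and per-drug synergy scores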
Reading the numbers: robust z-score, knock-down alone: higher = more cells remaining; low means essential gene; viability vs control pool, no drug: higher = more viable cells; synergy score with BYL719 and synergy score with cetuximab and synergy score with trametinib: higher = stronger synthetic lethality with the drug
Rule for the call: 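Essential when the robust z-score for knock-down alone with DMSO is below -3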
Meaning of the calls: active = essential (knock-down alone); inactive = no change alone

gene knocked down	PubChem SID	robust z-score, knock-down alone	viability vs control pool, no drug (fraction)	synergy score with BYL719	synergy score with cetuximab	synergy score with trametinib	Outcome
MAP4K1	SID56478699	-1.35	0.849	-0.141	-0.218	0.00459	inactive
CHD9	SID152154196	-1.11	0.868	-0.0724	0.126	0.00221	inactive
ACSL6	SID152156030	0.58	1	-0.0746	-0.18	-0.0276	inactive
NRBP1	SID135620974	-2.3	0.775	-0.245	-0.22	-0.11	inactive
PIM1	SID56478736	-0.983	0.878	-0.113	-0.148	0.072	inactive
CDC73	SID134319235	-2.92	0.727	-0.248	-0.138	-0.179	inactive
PRKAR1A	SID135621428	0.58	1	-0.13	0.0926	0.169	inactive
PRKCZ	SID56478675	-2.95	0.724	-0.0571	-0.141	0.00341	inactive
DYRK2	SID152156553	0.461	0.991	-0.0959	-0.0898	0.143	inactive
AURKB	SID152151121	0.201	0.97	0.0249	-0.0145	0.105	inactive
PKM	SID135621254	0.58	1	-0.153	-0.104	0.0903	inactive
STK32B	SID56478812	-0.996	0.877	-0.122	-0.115	-0.0219	inactive
SOS2	SID152153288	0.58	1	-0.217	-0.0888	-0.0307	inactive
EFNA5	SID152151552	0.58	1	-0.177	-0.211	-0.0932	inactive
SNRK	SID152154333	0.58	1	-0.0976	-0.101	0.00702	inactive
TBX3	SID134316486	0.58	1	-0.213	-0.211	-0.062	inactive
PKIA	SID56479258	-0.364	0.926	-0.136	-0.227	-0.0498	inactive
CDK3	SID56478597	0.58	1	-0.272	-0.0812	-0.0742	inactive
RNASEL	SID56478962	0.0384	0.958	-0.303	-0.245	-0.137	inactive
ADK	SID56478860	0.58	1	-0.149	-0.199	0.00953	inactive

Reformatted: results already given.
gene knocked down | PubChem SID | robust z-score, knock-down alone | viability vs control pool, no drug (fraction) | synergy score with BYL719 | synergy score with cetuximab | synergy score with trametinib | Outcome
DYRK2 | SID152156553 | 0.461 | 0.991 | -0.0959 | -0.0898 | 0.143 | inactive
AURKB | SID152151121 | 0.201 | 0.97 | 0.0249 | -0.0145 | 0.105 | inactive
PKM | SID135621254 | 0.58 | 1 | -0.153 | -0.104 | 0.0903 | inactive
